# The other results are listed elsewhere or left out.
# Protein sequences, listed by entry. Tags and fused reporters are not part of them. Lines headed by an entry give the natural chain unless they say otherwise; changes in a name come on top.
# UniProt P04844: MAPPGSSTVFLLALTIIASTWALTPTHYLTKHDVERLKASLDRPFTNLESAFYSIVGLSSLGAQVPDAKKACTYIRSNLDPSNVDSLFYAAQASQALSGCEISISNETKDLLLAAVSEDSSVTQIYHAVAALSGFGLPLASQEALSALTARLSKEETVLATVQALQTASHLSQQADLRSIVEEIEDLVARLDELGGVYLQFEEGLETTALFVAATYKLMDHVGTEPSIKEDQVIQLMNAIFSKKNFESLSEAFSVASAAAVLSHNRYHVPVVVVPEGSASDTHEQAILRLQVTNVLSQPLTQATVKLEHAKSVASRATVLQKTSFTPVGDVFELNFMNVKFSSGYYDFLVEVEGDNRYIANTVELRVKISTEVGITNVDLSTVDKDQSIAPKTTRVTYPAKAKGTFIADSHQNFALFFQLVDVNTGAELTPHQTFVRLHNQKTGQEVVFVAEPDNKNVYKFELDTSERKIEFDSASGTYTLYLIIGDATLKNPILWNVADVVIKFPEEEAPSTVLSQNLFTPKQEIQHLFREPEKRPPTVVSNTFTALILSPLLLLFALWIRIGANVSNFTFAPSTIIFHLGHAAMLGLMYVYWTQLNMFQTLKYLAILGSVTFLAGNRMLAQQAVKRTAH
# UniProt Q9BY78: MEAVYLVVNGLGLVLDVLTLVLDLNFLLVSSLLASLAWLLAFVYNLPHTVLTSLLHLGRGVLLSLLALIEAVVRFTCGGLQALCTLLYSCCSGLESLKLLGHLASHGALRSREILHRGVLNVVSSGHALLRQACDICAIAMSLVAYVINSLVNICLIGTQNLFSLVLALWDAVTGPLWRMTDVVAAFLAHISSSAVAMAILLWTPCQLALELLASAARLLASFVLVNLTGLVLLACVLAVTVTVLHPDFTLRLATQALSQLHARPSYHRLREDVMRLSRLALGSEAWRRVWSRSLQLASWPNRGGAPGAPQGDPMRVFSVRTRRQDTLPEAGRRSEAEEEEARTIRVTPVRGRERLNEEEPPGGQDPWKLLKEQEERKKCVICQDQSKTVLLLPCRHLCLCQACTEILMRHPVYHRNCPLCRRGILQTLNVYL
# UniProt P78346: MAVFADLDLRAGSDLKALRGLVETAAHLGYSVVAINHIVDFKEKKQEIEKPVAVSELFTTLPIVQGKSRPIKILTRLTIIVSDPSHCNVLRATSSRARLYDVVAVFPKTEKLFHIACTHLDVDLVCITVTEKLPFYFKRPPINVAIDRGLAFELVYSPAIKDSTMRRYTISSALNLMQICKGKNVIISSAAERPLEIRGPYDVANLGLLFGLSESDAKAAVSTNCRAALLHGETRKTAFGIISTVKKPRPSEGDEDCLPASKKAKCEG
# UniProt Q9Y225: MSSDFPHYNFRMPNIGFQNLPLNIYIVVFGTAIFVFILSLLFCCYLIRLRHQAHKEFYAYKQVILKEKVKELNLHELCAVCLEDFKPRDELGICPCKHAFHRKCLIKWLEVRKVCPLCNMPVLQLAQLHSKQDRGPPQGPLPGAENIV
# UniProt P49247: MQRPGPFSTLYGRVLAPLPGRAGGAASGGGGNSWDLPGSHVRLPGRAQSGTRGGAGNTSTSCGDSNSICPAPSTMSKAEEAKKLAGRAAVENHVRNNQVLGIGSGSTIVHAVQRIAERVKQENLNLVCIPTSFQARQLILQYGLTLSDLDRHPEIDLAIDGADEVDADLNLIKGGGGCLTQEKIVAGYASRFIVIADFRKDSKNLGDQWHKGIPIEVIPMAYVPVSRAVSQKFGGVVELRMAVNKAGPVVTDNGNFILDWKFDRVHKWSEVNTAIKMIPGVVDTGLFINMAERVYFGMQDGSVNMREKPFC
# UniProt O75695: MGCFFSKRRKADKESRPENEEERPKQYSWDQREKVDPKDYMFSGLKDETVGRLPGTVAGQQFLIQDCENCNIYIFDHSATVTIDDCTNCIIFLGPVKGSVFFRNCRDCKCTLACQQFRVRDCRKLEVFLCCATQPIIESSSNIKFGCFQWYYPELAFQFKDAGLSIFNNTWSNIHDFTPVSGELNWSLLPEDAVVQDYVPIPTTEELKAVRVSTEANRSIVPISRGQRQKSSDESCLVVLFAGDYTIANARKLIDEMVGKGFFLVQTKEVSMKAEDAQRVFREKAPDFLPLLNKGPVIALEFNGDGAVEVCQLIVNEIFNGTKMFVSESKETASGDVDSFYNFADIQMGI
# UniProt Q96P16: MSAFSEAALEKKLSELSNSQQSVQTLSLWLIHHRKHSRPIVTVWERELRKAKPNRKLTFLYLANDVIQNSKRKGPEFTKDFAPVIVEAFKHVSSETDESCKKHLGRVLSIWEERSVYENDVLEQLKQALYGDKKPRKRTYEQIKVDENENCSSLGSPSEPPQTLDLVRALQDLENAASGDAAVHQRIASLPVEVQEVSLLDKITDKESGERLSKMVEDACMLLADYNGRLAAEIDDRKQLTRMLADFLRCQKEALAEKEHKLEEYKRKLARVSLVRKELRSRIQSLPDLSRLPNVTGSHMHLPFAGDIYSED
# UniProt P10301: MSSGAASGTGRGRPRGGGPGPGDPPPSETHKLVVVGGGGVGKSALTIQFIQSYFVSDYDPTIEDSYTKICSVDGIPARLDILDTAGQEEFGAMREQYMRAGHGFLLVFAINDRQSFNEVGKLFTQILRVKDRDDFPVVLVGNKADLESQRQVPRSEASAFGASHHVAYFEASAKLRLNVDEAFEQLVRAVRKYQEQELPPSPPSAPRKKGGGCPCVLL
# UniProt Q92766: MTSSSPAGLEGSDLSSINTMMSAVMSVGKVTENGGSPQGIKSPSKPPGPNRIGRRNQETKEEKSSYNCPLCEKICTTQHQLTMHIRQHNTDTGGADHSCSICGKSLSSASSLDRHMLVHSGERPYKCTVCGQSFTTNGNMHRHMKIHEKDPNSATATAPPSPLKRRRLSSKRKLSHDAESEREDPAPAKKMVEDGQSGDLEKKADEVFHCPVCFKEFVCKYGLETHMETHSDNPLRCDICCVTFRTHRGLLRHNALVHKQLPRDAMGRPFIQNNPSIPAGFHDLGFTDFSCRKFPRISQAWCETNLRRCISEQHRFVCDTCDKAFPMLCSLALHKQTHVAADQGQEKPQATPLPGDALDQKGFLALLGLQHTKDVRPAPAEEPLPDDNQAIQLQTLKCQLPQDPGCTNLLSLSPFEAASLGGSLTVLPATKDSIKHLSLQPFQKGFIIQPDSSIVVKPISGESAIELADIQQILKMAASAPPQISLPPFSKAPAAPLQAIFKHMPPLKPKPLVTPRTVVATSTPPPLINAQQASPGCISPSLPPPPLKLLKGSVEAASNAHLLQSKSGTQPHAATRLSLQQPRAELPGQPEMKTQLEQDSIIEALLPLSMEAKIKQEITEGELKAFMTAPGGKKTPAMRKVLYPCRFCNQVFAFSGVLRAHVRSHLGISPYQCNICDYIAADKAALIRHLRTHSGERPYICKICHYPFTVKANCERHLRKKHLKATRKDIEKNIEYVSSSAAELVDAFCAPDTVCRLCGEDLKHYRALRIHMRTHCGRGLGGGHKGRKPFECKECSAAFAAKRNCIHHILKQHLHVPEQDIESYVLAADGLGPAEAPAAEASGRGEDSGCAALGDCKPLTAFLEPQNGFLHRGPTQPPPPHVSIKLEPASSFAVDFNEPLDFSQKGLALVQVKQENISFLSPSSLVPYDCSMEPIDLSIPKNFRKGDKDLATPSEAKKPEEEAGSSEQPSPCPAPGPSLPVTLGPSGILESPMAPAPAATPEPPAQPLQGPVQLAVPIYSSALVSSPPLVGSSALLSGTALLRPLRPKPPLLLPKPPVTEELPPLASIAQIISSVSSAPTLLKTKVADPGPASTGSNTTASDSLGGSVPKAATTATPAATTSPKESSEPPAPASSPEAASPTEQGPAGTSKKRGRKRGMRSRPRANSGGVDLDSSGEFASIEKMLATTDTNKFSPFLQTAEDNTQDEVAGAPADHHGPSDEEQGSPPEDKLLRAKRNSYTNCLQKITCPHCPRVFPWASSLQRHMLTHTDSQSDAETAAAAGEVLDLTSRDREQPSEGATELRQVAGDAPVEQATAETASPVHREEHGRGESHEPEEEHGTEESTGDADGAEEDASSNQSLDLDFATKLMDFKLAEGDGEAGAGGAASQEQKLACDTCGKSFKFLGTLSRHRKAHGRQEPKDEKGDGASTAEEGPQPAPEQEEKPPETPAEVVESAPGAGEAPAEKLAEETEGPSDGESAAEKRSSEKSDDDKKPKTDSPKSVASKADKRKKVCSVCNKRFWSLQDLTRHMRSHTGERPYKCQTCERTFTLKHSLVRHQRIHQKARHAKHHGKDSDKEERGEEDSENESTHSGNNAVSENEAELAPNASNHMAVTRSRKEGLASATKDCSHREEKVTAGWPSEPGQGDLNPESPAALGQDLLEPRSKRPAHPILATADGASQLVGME
# UniProt Q8IXW5, whole entry, looked up: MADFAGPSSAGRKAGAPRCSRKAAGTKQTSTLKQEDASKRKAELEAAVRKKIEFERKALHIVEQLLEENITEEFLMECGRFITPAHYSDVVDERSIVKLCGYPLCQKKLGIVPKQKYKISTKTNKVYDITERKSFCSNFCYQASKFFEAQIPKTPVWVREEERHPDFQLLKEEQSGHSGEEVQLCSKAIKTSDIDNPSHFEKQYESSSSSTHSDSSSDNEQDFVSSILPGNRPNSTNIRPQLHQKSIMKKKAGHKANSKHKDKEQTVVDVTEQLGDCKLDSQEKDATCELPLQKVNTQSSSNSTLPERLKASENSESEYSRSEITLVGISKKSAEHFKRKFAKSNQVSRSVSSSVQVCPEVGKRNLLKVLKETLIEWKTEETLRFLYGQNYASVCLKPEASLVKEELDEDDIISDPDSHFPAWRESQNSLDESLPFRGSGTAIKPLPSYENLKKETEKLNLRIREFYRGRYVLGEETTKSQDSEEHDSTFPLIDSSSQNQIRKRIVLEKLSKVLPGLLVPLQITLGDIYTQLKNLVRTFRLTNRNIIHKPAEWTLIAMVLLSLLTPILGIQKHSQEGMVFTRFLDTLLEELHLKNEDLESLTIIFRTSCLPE
# UniProt Q92834: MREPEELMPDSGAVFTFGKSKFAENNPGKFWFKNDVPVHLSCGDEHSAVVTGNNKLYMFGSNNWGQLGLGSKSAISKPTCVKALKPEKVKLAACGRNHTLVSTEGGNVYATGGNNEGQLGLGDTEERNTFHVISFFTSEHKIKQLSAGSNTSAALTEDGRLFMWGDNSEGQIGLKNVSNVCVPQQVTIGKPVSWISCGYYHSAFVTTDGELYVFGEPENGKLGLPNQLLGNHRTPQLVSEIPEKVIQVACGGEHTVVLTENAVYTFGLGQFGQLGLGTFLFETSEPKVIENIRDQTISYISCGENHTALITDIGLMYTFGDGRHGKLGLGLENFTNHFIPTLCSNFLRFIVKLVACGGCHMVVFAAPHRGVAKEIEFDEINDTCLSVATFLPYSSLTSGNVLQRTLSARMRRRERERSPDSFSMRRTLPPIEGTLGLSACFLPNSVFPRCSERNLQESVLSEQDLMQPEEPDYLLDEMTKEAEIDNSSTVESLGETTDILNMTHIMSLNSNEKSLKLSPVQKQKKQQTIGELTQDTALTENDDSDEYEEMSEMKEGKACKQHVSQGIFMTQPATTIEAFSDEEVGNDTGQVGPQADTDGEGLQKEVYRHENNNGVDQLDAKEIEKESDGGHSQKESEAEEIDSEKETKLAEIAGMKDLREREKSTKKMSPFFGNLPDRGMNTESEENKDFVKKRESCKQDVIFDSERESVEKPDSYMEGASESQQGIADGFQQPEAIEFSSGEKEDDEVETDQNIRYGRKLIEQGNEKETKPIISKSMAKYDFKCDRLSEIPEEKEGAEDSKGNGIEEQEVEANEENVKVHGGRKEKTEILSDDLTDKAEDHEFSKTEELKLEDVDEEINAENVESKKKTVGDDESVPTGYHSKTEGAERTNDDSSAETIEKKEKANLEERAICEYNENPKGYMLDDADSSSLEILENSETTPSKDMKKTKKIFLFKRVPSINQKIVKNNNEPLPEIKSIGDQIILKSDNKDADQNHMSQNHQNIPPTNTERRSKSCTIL
# UniProt Q8TA86: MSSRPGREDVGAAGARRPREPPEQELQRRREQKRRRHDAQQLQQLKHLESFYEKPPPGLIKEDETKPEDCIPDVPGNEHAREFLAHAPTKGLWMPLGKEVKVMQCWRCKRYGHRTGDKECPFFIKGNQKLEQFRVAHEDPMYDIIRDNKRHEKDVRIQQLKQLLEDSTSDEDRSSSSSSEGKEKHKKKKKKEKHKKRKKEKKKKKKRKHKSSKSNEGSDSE
# UniProt P60602: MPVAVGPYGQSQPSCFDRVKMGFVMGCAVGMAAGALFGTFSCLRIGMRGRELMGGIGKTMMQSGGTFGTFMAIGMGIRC
# UniProt Q9GZN7, whole entry, looked up: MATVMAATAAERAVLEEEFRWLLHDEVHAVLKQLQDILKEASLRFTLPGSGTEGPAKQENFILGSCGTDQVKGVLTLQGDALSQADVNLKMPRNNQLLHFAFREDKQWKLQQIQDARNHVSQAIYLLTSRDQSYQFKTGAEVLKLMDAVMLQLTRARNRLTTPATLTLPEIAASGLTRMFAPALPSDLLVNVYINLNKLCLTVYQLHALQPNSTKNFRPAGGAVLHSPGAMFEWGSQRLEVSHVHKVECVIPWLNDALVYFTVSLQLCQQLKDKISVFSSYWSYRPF
# Compound: CC1=C2C(=CC=C1)N=C(N(C2=O)C3=CC=CC=C3C)CN4C=NC5=C(N=CN=C54)N
# Assay: log2 fold change, soluble protein after heating vs DMSO (PISA); higher = thermal stabilisation; K562 cells, 10 uM, 30 min; active = over 0.2 and 3.5 SD of the protein, either way, in both replicates (recomputed)
# Procedure, shortened: (§1)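 Aliquots of K562 cells (2×10^6 cells/mL) treated with 10 μM compound for 30 min were heated for 3 min over 48°C-58°C. After pooling and extraction in PBS with 0.5% NP-40 at 4°C, soluble protein from a 21,000xg, 90 min spin was quantified by TMTpro 16plex LC-MS/MS with channel sums equalised. Thermal stability is expressed against control samples, from duplicates, as a log2 fold change.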
row,Target,log2 fold change
1,RPS24 isoform 4 (UniProt P62847),inactive: -0.196
2,RPL37A (UniProt P61513),inactive: -0.641
3,RPL10 (UniProt P27635),inactive: -0.447
4,RPL7L1 (UniProt Q6DKI1),inactive: -0.072
5,RPN2 (UniProt P04844),inactive: -0.012
6,RPS28 (UniProt P62857),inactive: -0.081
7,RPL8 (UniProt P62917),inactive: -0.765
8,RPS26 (UniProt P62854),inactive: -0.37
9,RNF26 (UniProt Q9BY78),inactive: -0.104
10,RPS3 (UniProt P23396),inactive: -0.127
11,RPRD2 (UniProt Q5VT52),inactive: 0.019
12,RPL35A (UniProt P18077),inactive: -0.619
13,RPS10 (UniProt P46783),inactive: -0.16
14,RPP30 isoform 2 (UniProt P78346),inactive: -0.002
15,RNF24 isoform 2 (UniProt Q9Y225),inactive: -0.324
16,RPIA (UniProt P49247),inactive: 0.047
17,RPS7 (UniProt P62081),inactive: -0.224
18,RNF31 (UniProt Q96EP0),inactive: 0.095
19,"RPS7, A0A2R8Y623",inactive: -0.965
20,RPL26L1 (UniProt Q9UNX3),inactive: -0.335
21,RPS4X (UniProt P62701),inactive: -0.232
22,RP2 (UniProt O75695),inactive: 0.133
23,RPL24 (UniProt P83731),inactive: -0.406
24,RPRD1A (UniProt Q96P16),inactive: 0.064
25,RRAS (UniProt P10301),inactive: 0.034
26,RREB1 isoform 2 (UniProt Q92766),inactive: 0.055

# Compound: Cc1sc2c(c1C)C(c1ccc(Cl)cc1)=N[C@@H](CC(=O)OC(C)(C)C)c1nnc(C)n1-2
# Assay: as above
# Procedure, shortened: as §1
row,Target,log2 fold change
1,RPS19 (UniProt M0R2L9),inactive: 0.183
2,RPS24 isoform 4 (UniProt P62847),inactive: 0.145
3,RPL37A (UniProt P61513),inactive: 0.274
4,RPL10 (UniProt P27635),inactive: 0.245
5,RPLP0 (UniProt F8VWV4),inactive: 0.329
6,RPN2 (UniProt P04844),inactive: -0.022
7,RNF4 (UniProt P78317),inactive: -0.151
8,RPS28 (UniProt P62857),inactive: 0.063
9,RPL8 (UniProt P62917),inactive: 0.355
10,RPS26 (UniProt P62854),inactive: 0.21
11,RPAP2 (UniProt Q8IXW5),inactive: 0.001
12,RPS3 (UniProt P23396),inactive: 0.083
13,RPRD2 (UniProt Q5VT52),inactive: 0.085
14,RPL35A (UniProt P18077),inactive: 0.371
15,RPS10 (UniProt P46783),inactive: 0.078
16,RPS3 (UniProt E9PJN9),inactive: 0.141
17,RPP30 isoform 2 (UniProt P78346),inactive: 0.111

row,Target,log2 fold change
1,RPS6KB2 (UniProt Q9UBS0),inactive: 0.229
2,RPIA (UniProt P49247),inactive: -0.014
3,RPGR (UniProt Q92834),inactive: -0.022
4,RPS3A (UniProt D6R9B6),inactive: 0.248
5,RPS7 (UniProt P62081),inactive: 0.159
6,RNF31 (UniProt Q96EP0),inactive: 0.155
7,"RPS7, A0A2R8Y623",inactive: -0.475
8,RPL26L1 (UniProt Q9UNX3),inactive: 0.19
9,RPS4X (UniProt P62701),inactive: 0.148
10,RP2 (UniProt O75695),inactive: -0.093
11,RPUSD4 (UniProt Q96CM3),inactive: 0.204
12,RPL24 (UniProt P83731),inactive: 0.227
13,RPRD1A (UniProt Q96P16),inactive: -0.2
14,RP9 (UniProt Q8TA86),inactive: 0.094
15,RRAS (UniProt P10301),inactive: -0.012
16,ROMO1 (UniProt P60602),inactive: 0.172
17,RREB1 isoform 2 (UniProt Q92766),inactive: 0.046

# Compound: c1ccc([C@@H]2C[C@H]2NC2CCNCC2)cc1
# Assay: as above
# Procedure, shortened: as §1
row,Target,log2 fold change
1,RPS24 isoform 4 (UniProt P62847),inactive: 0.023
2,RPL37A (UniProt P61513),inactive: -0.068
3,RPL10 (UniProt P27635),inactive: 0
4,RPLP0 (UniProt F8VWV4),inactive: 0.024
5,ROGDI (UniProt Q9GZN7),inactive: -0.125
6,ROS1 (UniProt P08922),inactive: 0.021
7,RPN2 (UniProt P04844),inactive: -0.012
8,RPS28 (UniProt P62857),inactive: -0.001
9,RPL8 (UniProt P62917),inactive: 0
10,RPS26 (UniProt P62854),inactive: 0
11,RPAP2 (UniProt Q8IXW5),inactive: -0.119
12,RPS3 (UniProt P23396),inactive: 0.015
13,RPL35A (UniProt P18077),inactive: -0.001
14,RPS10 (UniProt P46783),inactive: 0
15,RPP30 isoform 2 (UniProt P78346),inactive: 0.05
16,RPS6KB2 (UniProt Q9UBS0),inactive: 0.167
17,RPIA (UniProt P49247),inactive: -0.013
18,RPS7 (UniProt P62081),inactive: 0.019
19,RPL26L1 (UniProt Q9UNX3),inactive: -0.01
20,RPS4X (UniProt P62701),inactive: 0.001
21,RP2 (UniProt O75695),inactive: -0.049
22,RPUSD4 (UniProt Q96CM3),inactive: -0.035
23,RPL24 (UniProt P83731),inactive: 0
24,RP9 (UniProt Q8TA86),inactive: -0.031
25,RRAS (UniProt P10301),inactive: 0.029
26,ROMO1 (UniProt P60602),inactive: 0.082
27,RREB1 isoform 2 (UniProt Q92766),inactive: -0.043

# Reference: the supplement of paper PMC10849652
